Measured values taken from patent publication US20120094898A1 (Takeda Pharmaceutical Company Limited, priority 2010, published 2012).
Non-standard residues stand in square brackets, D forms with d. No end group written: not given here. *: point of attachment. 1Nal = N[C@@H](Cc1cccc2ccccc12)C(=O)O; 2Nal = N[C@@H](Cc1ccc2ccccc2c1)C(=O)O; Cbz = O=C(OCc1ccccc1)*; βAla = NCCC(=O)O

Test: general procedure: Fmoc solid-phase peptide synthesis; Sieber amide resin; DIPCDI/HOAt
Conditions: whole synthesis, scale 0.01 mmol

Compared with Cbz-AY[2Nal]LFRPRN-NH2, “NpipAc-Tyr-Nal(2)-Leu-Phe-Arg-Ala-Arg-Asn-NH2” is lower in isolated mass: 10.8 mg for the first, 9.3 mg for the second.

Compared with “NpipAc-Tyr-Nal(2)-Leu-Phe-Arg-Pro-Arg-Asn-NH2”, [βAla]Y[1Nal]LFRPRN-NH2 is lower in isolated mass: 7.9 mg for the first, 6.5 mg for the second.

Same assay, conditions: whole synthesis, scale 0.02 mmol

First: Acp-Tyr-Nal(2)-Leu-Phe-Arg-NMeAla-Arg-Asn-NH2
Second: Pic(4)-Tyr-Nal(2)-Leu-Phe-Arg-NMeAla-Arg-Asn-NH2
The isolated mass of the first is lower: 14.2 mg for the first, 19.0 mg for the second.
